Reference: US4002752A, “Piperazinylimino rifamycins” (Gruppo Lepetit S.p.A., priority 1975, dated 1977)
In brackets after ≈: the same amount, converted by molar mass.

Test system: Mycobacterium tuberculosis H37 Rv
Test: minimal inhibitory concentration in vitro against Mycobacterium tuberculosis H37 Rv
Format: cell-based
Settings: H37RV
Procedure: For instance, the value of the minimal inhibitory concentration in vitro of the "cyclopentyl derivative" against Mycobacterium tuberculosis H37 Rv is 0.05 μg/ml, while that of rifampicin is 0.5 μg/ml.

CO[C@H]1/C=C/O[C@@]2(C)Oc3c(C)c(O)c4c(O)c(c(/C=N/N5CCN(C)CC5)c(O)c4c3C2=O)NC(=O)/C(C)=C\C=C\[C@H](C)[C@H](O)[C@@H](C)[C@@H](O)[C@@H](C)[C@H](OC(C)=O)[C@@H]1C [rifampicin] gave an MIC of 0.5 µg/mL (≈ 0.608 µM).
